The target of this data set is SIRT6-WT (UniProt Q8N6T7). Put plainly: EMSA. To be noted: 50 nM DNA, 2 mM MgCl2; residues 1-355. On the technique in general: Mobility shift assays separate free from complexed probe on a gel.

By UniProt entry, the sequences of proteins in these tests, tags left out.
UniProt Q8N6T7, whole entry: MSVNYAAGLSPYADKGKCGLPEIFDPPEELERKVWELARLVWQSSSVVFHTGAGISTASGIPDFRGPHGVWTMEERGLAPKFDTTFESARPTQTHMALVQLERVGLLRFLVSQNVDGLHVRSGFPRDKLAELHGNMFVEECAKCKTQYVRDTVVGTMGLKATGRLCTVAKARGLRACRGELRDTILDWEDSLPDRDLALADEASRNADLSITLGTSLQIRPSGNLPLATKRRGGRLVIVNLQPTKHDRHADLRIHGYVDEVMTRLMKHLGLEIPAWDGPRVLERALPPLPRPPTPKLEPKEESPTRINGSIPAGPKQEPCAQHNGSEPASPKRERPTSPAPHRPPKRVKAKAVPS

One sequence from publication doi:10.1101/2024.07.31.606047 can be followed below.

The exact form of at least one protein or probe is not confirmed. At least one verdict was read from the data and is not stated in words by the source.

For the sequence “CTACTGGTACGGCAGACAGGATGTATATATCTGACACGTGCCTGGAGACTAGGGAGTAATCCCCTTGGCGGTTAAAACGCGGGGGACAGCGCGTACGTGCGTTTAAGCGGTGCTAGAGCTGTCTACGACCAATTGAGCGGCCTCGGCACCGGGATTCTCCAGTATTCGAGGCCGTTC (double strand) [ds601 DNA]”, the binding result is “binds”.
